Source: PMC10000680
Results are given in words; binding and its absence hold for the method and conditions named. Binding seen in cells or lysates may run through a third protein. Some entries that bind do so weakly or less than the wild type. Values belong to the molecule of their own block, whether it stands above or below them.

Chains of the proteins cited; added tags and fusions are not shown.
UniProt P19338: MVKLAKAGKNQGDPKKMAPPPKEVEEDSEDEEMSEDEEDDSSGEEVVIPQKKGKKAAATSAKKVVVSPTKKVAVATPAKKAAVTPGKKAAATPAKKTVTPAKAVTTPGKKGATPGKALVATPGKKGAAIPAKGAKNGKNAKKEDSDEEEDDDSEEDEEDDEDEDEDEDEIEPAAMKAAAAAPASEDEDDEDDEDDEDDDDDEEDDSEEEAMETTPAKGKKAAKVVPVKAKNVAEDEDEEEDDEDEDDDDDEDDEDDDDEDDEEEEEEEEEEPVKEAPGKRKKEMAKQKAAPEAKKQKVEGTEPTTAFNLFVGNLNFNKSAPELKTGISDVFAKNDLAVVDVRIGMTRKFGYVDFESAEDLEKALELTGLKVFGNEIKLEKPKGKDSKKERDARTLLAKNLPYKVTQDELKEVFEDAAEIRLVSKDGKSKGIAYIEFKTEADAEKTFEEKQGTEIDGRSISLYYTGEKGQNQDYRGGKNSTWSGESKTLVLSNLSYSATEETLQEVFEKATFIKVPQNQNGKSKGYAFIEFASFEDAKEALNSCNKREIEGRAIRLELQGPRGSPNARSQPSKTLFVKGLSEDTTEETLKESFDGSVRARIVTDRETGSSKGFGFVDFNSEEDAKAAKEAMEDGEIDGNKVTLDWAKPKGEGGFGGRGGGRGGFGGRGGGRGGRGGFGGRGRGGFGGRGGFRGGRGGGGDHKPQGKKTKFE
UniProt Q9UKV8: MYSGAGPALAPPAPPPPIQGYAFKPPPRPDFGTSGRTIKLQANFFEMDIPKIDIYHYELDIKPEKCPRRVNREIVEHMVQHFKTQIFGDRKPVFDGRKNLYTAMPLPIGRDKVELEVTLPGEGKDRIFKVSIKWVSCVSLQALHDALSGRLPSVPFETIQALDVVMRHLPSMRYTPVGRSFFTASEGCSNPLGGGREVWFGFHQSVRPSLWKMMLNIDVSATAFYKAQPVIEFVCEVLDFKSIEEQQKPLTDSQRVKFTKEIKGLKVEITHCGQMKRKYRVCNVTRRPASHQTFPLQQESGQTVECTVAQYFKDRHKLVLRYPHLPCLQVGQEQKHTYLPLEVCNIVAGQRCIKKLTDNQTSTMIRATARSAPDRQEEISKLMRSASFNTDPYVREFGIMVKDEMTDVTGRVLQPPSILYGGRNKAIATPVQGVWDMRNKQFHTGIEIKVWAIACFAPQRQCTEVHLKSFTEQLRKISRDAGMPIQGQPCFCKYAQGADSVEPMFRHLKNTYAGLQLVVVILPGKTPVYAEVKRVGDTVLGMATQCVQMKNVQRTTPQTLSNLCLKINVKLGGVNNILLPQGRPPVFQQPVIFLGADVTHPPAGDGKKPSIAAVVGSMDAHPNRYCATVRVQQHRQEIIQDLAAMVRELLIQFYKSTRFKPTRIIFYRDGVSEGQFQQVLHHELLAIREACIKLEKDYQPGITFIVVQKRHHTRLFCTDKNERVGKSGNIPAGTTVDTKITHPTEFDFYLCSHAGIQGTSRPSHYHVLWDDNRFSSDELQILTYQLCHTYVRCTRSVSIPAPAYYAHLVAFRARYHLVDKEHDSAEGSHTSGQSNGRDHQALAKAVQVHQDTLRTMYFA

Biological target: nucleolin (NCL) (human (endogenous in PASMCs)) (UniProt P19338)
Test: co-IP; endogenous proteins in PASMC lysate (20 mM Tris-HCl pH 7.5, 100 mM KCl, 5 mM MgCl2, 0.5% NP-40), precleared; Dynabeads Protein G coated with anti-NCL antibody or rabbit IgG, and conversely with anti-DGCR8 or anti-Ago2 antibody or mouse IgG, 4 °C overnight; washed with NT2 buffer (150 mM NaCl); immunoblot

binding: binds
Molecule: Ago2 (from UniProt Q9UKV8 1-859)

binding: binds
B1: DGCR8 (protein, UniProt Q8WYQ5 1-773)
chain: METDESPSPLPCGPAGEAVMESRARPFQALPREQSPPPPLQTSSGAEVMDVGSGGDGQSELPAEDPFNFYGASLLSKGSFSKGRLLIDPNCSGHSPRTARHAPAVRKFSPDLKLLKDVKISVSFTESCRSKDRKVLYTGAERDVRAECGLLLSPVSGDVHACPFGGSVGDGVGIGGESADKKDEENELDQEKRVEYAVLDELEDFTDNLELDEEGAGGFTAKAIVQRDRVDEEALNFPYEDDFDNDVDALLEEGLCAPKKRRTEEKYGGDSDHPSDGETSVQPMMTKIKTVLKSRGRPPTEPLPDGWIMTFHNSGVPVYLHRESRVVTWSRPYFLGTGSIRKHDPPLSSIPCLHYKKMKDNEEREQSSDLTPSGDVSPVKPLSRSAELEFPLDEPDSMGADPGPPDEKDPLGAEAAPGALGQVKAKVEVCKDESVDLEEFRSYLEKRFDFEQVTVKKFRTWAERRQFNREMKRKQAESERPILPANQKLITLSVQDAPTKKEFVINPNGKSEVCILHEYMQRVLKVRPVYNFFECENPSEPFGASVTIDGVTYGSGTASSKKLAKNKAARATLEILIPDFVKQTSEEKPKDSEELEYFNHISIEDSRVYELTSKAGLLSPYQILHECLKRNHGMGDTSIKFEVVPGKNQKSEYVMACGKHTVRGWCKNKRVGKQLASQKILQLLHPHVKNWGSLLRMYGRESSKMVKQETSDKSVIELQQYAKKNKPNLHILSKLQEEMKRLAEEREETRKKPKMSIVASAQPGGEPLCTVDV
